Out of some 400,000 compounds screened, about 5,500 (1.4%) were called active. The shares of active, inactive and inconclusive entries below differ from those in the screen. Calls follow the shape of the dose curve; as a rule, active = well fitted cell-killing curve with a large enough effect; inconclusive = small, poorly fitted or top-dose-only effect, or effect the other way; inactive = flat fitted curve, though single readings scatter. Potencies of inconclusive entries are doubtful fits and often do not repeat.
Test: qHTS assay for MDR1-selective chemotherapeutics: Primary screen using the parental adenocarcinoma cell KB-3-1; also: nearly all actives have a fitted effect of over 60% in size
Details: KB-3-1 viability, CellTiter-Glo ATP luminescence, 72 h; series mostly up to 46.1 µM
How it was run: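 Here the drug-naive KB-3-1 line serves as comparator for MDR sub-line selectivity; cells received compound titrations, 72 h at 37 °C, then CellTiter-Glo readout.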
Potency is read from the fitted curve at half-maximal effect.

Compound | Potency
O=C(NC(=S)Nc1cccc(Cl)c1N1CCCCC1)c1ccco1 | inactive
CC1CCN(S(=O)(=O)c2ccc3nc(Nc4cccc(F)c4)ccc3c2)CC1 | inconclusive: 16.4 µM [cytotoxic, single point]
O=C(Nc1ccc(-c2ccccc2)cc1)c1ccccc1 | active: 20.6 µM
CN(C)C(CNC(=O)c1cccc(C(F)(F)F)c1)c1ccco1 (stereo not drawn) | inconclusive: 29.1 µM [rising, single point]
O=C(C[C@H]1C[C@H](C(=O)N2CCOCC2)[C@@]2(CCC3CCCC3)c3[nH]c4cc(-c5ccco5)ccc4c3CCN2C1=O)NCCCn1ccnc1 | inconclusive: 29.1 µM [cytotoxic, single point]
Cc1ncc(S(=O)(=O)c2ccc(Cl)cc2)c(-c2ccccc2)n1 | inactive
O=C(CN1CCN(c2ccc(F)cc2)CC1)c1ccc(O)cc1O | inactive
CCCn1c(=NC(=O)c2ccco2)c(C(=O)OCC)cc2c(=O)n3ccccc3nc21 | inactive
Cc1ccc(CN2CCC(CNC(=O)c3cc4ccc5cccnc5c4[nH]3)CC2)cc1 | inconclusive: 18.4 µM [cytotoxic, partial curve, poor fit]
CC1(C)[C@@H](O)CC[C@]2(C)[C@H]3C(=O)C=C4[C@@H]5C[C@@](C)(C(=O)O)CC[C@]5(C)CC[C@@]4(C)[C@]3(C)CC[C@@H]12 | inactive
O=C(Cc1ccc(Cl)cc1)NCC(=O)N1CCC2(CC1)NCCc1[nH]cnc12 | inactive
CN(C)CCN1C(=O)C(=O)/C(=C(/O)c2ccc(S(=O)(=O)N3CCOCC3)cc2)C1c1ccccc1 (stereo not drawn) | inactive
Cc1onc(-c2c(F)cccc2Cl)c1C(=O)Nc1nc2ccccc2[nH]1 | inconclusive: 29.1 µM [cytotoxic, single point]
O=C(CN(Cc1ccccc1F)S(=O)(=O)c1ccc(Cl)cc1)NCCC1=CCCCC1 | inconclusive: 18.4 µM [cytotoxic, single point]
COc1ccccc1NC(=O)c1ccccc1S(=O)(=O)c1ccccc1[N+](=O)[O-] | inconclusive: 23.1 µM [cytotoxic, single point]
COc1ccc(NC(=S)N/N=C/c2ccc(F)c(F)c2)cc1 | inconclusive: 25.9 µM [cytotoxic, single point]
O=C1OC(O)c2cccc3cccc1c23 (stereo not drawn) | inactive
CCc1nc2c(OCc3cc(Cl)cc(Cl)c3)cccn2c1N(C)C(=O)c1ccc(C)cc1 | inconclusive: 29.1 µM [cytotoxic, single point]
Cc1cc(C)c(OCCCn2ccnc2)c(C)c1 | inactive
O=C(Nc1cc(F)ccc1F)C1CCCN(c2ncnc3c2nc2n3CCCCC2)C1 (stereo not drawn) | inconclusive: 18.4 µM [cytotoxic, partial curve, poor fit]
CCCCCCCCCCOC(=O)Cn1c(COc2cccc(C)c2)[n+](C)c2ccccc21 | inconclusive: 25.9 µM [cytotoxic, partial curve, poor fit]
COc1cccc(NC(=O)CSc2nnc(-c3cc(C)n(-c4ccccc4)c3C)o2)c1 | inconclusive: 14.1 µM [cytotoxic, single point]
COc1ccc(/C=C2\SC(=S)N(CCCC(=O)N3CCOCC3)C2=O)cc1 | active: 23.1 µM

Compound | Potency
O=S(=O)(c1cccc(Cn2nnc(-c3ccc(F)cc3)n2)c1)N1CCOCC1 | inconclusive: 18.4 µM [cytotoxic, single point]
Nc1cc2sc(-c3ccc(C(=O)O)cc3)nc2cc1Cl | inconclusive: 9.2 µM [cytotoxic, partial curve]
COc1ccc(N(CC(=O)NC2CCCCCC2)S(=O)(=O)c2c(C)nn(C)c2C)cc1 | inconclusive: 32.6 µM [rising, single point]
CC(C)(C)c1ccc(C(=O)NCC(c2cccs2)S(=O)(=O)c2ccc(F)cc2)cc1 (stereo not drawn) | inconclusive: 23.1 µM [cytotoxic, single point]
FC(F)(F)c1nc(-c2cccs2)ncc1-c1nnnn1-c1ccc(Cl)cc1 | inconclusive: 29.1 µM [cytotoxic, single point]
Cc1cc(N2CCN(c3cccc(C(F)(F)F)c3)CC2)n2ncnc2n1 | inconclusive: 18.4 µM [cytotoxic, single point]
COc1ccc(Cl)cc1NC(=O)/C=C\C(=O)O | inconclusive: 29.1 µM [cytotoxic, single point]
CCC(C)C(NC(=O)c1ccccc1NC(=O)c1ccco1)C(=O)NC1CCCCC1 (stereo not drawn) | inconclusive: 29.1 µM [cytotoxic, single point]
CN(C(=O)c1ccc2ccccc2c1)c1ccccn1 | inactive
COc1ccc(S(=O)(=O)N[C@H]2CC[C@H](CCNC(=O)c3ccccc3F)O[C@@H]2CO)cc1 | inactive
CCCCn1c(N)c(N(CC(C)C)C(=O)c2cc(C)oc2C)c(=O)[nH]c1=O | inconclusive: 29.1 µM [rising, single point]
CSc1nnc(SCC2=NNC(=O)SC2)s1 | inconclusive: 23.1 µM [cytotoxic, single point]
O=S(=O)(c1ccc(C(F)(F)F)cc1)N1CCN(CCOc2ccccc2)CC1 | inactive
COC(=O)c1cc(C)nc2c1C(=O)C(=O)C=C2N1CCOCC1 | inconclusive: 3.66 µM [cytotoxic, partial curve, poor fit]
CCCN1C(=O)c2[nH]nc(-c3ccccc3O)c2C1c1cccc(OCc2ccccc2)c1 (stereo not drawn) | inconclusive: 29.1 µM [cytotoxic, single point]
CN(CC(=O)Nc1ccccc1Br)CC(=O)NC(c1ccccc1)c1ccccc1 | inconclusive: 20.6 µM [cytotoxic, single point]
CC1=C(C(=O)NC2CCCC(C)C2C)C2(CCCCC2)OC1=O (stereo not drawn) | inconclusive: 6.51 µM [cytotoxic, partial curve]
Cc1ccc(OCC(=O)N/N=C/c2cn[nH]c2-c2ccc(Cl)c(Cl)c2)cc1 | inconclusive: 18.4 µM [cytotoxic, single point]
CCCNC(=S)NC1CC2CCC(C1)N2Cc1ccccc1 (stereo not drawn) | inactive
Cc1cccc(CC2CC(=O)N(C3CCCCC3)C2=O)c1 (stereo not drawn) | inactive
COc1ccc(S(=O)(=O)n2cnc3cc(C)c(C)cc32)cc1C | inconclusive: 23.1 µM [cytotoxic, single point]
CCN1CCN(c2nc(S(=O)(=O)c3ccc(C)cc3)c(Cl)s2)CC1 | inconclusive: 16.4 µM [cytotoxic, single point]
NC(N)=Nc1nc2ccc(Br)cc2c(=O)[nH]1 | inactive

A draw from above in order of count of non-hydrogen atoms, rising.
Compound | Potency
CSc1nnc(SCC2=NNC(=O)SC2)s1 | inconclusive: 23.1 µM [cytotoxic, single point]
COc1ccc(Cl)cc1NC(=O)/C=C\C(=O)O | inconclusive: 29.1 µM [cytotoxic, single point]
Nc1cc2sc(-c3ccc(C(=O)O)cc3)nc2cc1Cl | inconclusive: 9.2 µM [cytotoxic, partial curve]
Cc1cccc(CC2CC(=O)N(C3CCCCC3)C2=O)c1 (stereo not drawn) | inactive
CC1=C(C(=O)NC2CCCC(C)C2C)C2(CCCCC2)OC1=O (stereo not drawn) | inconclusive: 6.51 µM [cytotoxic, partial curve]
CCN1CCN(c2nc(S(=O)(=O)c3ccc(C)cc3)c(Cl)s2)CC1 | inconclusive: 16.4 µM [cytotoxic, single point]
Cc1cc(N2CCN(c3cccc(C(F)(F)F)c3)CC2)n2ncnc2n1 | inconclusive: 18.4 µM [cytotoxic, single point]
Cc1ccc(OCC(=O)N/N=C/c2cn[nH]c2-c2ccc(Cl)c(Cl)c2)cc1 | inconclusive: 18.4 µM [cytotoxic, single point]
O=S(=O)(c1cccc(Cn2nnc(-c3ccc(F)cc3)n2)c1)N1CCOCC1 | inconclusive: 18.4 µM [cytotoxic, single point]
CN(CC(=O)Nc1ccccc1Br)CC(=O)NC(c1ccccc1)c1ccccc1 | inconclusive: 20.6 µM [cytotoxic, single point]
COc1ccc(N(CC(=O)NC2CCCCCC2)S(=O)(=O)c2c(C)nn(C)c2C)cc1 | inconclusive: 32.6 µM [rising, single point]
COc1ccc(S(=O)(=O)N[C@H]2CC[C@H](CCNC(=O)c3ccccc3F)O[C@@H]2CO)cc1 | inactive
CCCN1C(=O)c2[nH]nc(-c3ccccc3O)c2C1c1cccc(OCc2ccccc2)c1 (stereo not drawn) | inconclusive: 29.1 µM [cytotoxic, single point]

Later entries

Compound | Potency
CN(C(=O)COC(=O)Cc1c(Cl)cccc1Cl)c1c(N)n(Cc2ccccc2)c(=O)[nH]c1=O | inconclusive: 20.6 µM [rising, partial curve, poor fit]
CN(C)c1ccc(CNC(=O)C2(C)Cc3c(-c4ccc(N(C)C)cc4)ccnc3O2)cc1 (stereo not drawn) | inconclusive: 29.1 µM [cytotoxic, single point]
O=C(CN1C(=O)COc2ccc(S(=O)(=O)N3CCOCC3)cc21)N1CCN(c2cccc(C(F)(F)F)c2)CC1 | inactive
O=S(=O)(NCCc1ccncc1)c1ccc(F)cc1 | inactive
CC(C)(C)c1ccc(C(=O)NCCC(=O)N2CCN(c3ncccn3)CC2)cc1 | inconclusive: 10.3 µM [cytotoxic, partial curve, poor fit]
Cc1cc(C)cc(N(CC(=O)NC2CCC(C)CC2)S(=O)(=O)c2c(C)noc2C)c1 (stereo not drawn) | inactive
CCOc1ccc2ncc(S(=O)(=O)c3ccc(C)cc3)c(N3CCC4(CC3)OCCO4)c2c1 | inconclusive: 20.6 µM [cytotoxic, single point]
CC(C)CC(NC(=O)C(NC(=O)C(Cc1ccc(OCc2ccccc2)cc1)NC(=O)OC(C)(C)C)C(C)C)C(N)=O (stereo not drawn) | inactive
CN(C)c1ccc(-c2csc(C(O)(c3ccccc3)C(F)(F)F)n2)cc1 (stereo not drawn) | inactive
CC(C)C[C@@H](COCc1cccc(Cl)c1)N1CCN(C(=O)c2ccc(C(F)(F)F)cc2)CCC1=O | inconclusive: 29.1 µM [cytotoxic, single point]
COc1ccc(CN(Cc2nc3ccccc3c(=O)[nH]2)C(=O)c2ccco2)cc1 | inactive
C[C@H](CO)N1C[C@H](C)[C@@H](CN(C)C(=O)c2ccc(F)cc2)Oc2cc(Br)ccc2S1(=O)=O | inconclusive: 25.9 µM [cytotoxic, single point]
O=C(c1ccc2c(=O)n(CCc3ccccc3)c(=O)[nH]c2c1)N1CCN(c2ccccc2)CC1 | inconclusive: 32.6 µM [cytotoxic, single point]
CCn1nc(C)c(NS(=O)(=O)c2ccccc2)c1C | inconclusive: 29.1 µM [cytotoxic, single point]
CCc1ccc(C(=O)NNc2ccc(Cl)cc2)cc1 | inconclusive: 18.4 µM [cytotoxic, single point]
CC1(Cc2ccc(OC(F)(F)F)cc2)C(=O)Nc2ccc(S(=O)(=O)NC3CCCCC3)cc21 (stereo not drawn) | inconclusive: 29.1 µM [cytotoxic, single point]
COc1cc(C(O)c2nc(-c3cc4ccccc4o3)cs2)ccc1F (stereo not drawn) | inactive
Cc1ccc(C(=O)/C=C/c2cn(CC(O)CN3CCc4ccccc43)c3ccccc23)cc1 (stereo not drawn) | inconclusive: 23.1 µM [cytotoxic, single point]
COc1cccc(-n2cc(C(=O)Oc3cccc(C(F)(F)F)c3)c3ccccc3c2=O)c1 | inactive
CC1(C)CCSC(/C=C/c2ccccc2)=N1 | active: 14.6 µM
CCN(C(=O)c1ccc(NC(C)=O)cc1)c1ccccc1C | inactive
COc1ccc(C2=[N+](C)CCn3cccc32)c(OC)c1 | inconclusive: 20.6 µM [cytotoxic, single point]
